Some of the results follow. Most values lie at the level of the controls, where differences are scatter.

Protein sequences, listed by entry. Tags and fused reporters are not part of them. Lines headed by an entry give the natural chain unless they say otherwise; changes in a name come on top.
UniProt Q8CFV9: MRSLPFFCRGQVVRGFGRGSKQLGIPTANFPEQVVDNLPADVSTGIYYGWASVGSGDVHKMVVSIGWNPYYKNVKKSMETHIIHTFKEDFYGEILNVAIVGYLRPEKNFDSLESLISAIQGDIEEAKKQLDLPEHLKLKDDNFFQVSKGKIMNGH
UniProt Q8CD26: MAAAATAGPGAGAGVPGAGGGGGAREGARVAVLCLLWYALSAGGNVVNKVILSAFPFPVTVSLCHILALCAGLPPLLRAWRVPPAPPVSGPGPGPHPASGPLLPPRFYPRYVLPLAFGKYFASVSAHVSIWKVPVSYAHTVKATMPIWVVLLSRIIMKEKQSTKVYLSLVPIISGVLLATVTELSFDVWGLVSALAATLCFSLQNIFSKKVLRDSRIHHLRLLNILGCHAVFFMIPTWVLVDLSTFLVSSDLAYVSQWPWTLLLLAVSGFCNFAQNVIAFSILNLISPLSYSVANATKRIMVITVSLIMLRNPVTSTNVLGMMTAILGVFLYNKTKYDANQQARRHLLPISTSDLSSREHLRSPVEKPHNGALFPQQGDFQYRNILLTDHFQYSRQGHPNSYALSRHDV
UniProt Q8CEC5: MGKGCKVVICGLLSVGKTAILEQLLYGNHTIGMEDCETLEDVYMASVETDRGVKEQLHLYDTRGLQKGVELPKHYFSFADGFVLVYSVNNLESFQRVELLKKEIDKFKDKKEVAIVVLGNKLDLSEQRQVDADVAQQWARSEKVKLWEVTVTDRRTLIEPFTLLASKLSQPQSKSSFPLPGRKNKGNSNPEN
UniProt Q8CHS8: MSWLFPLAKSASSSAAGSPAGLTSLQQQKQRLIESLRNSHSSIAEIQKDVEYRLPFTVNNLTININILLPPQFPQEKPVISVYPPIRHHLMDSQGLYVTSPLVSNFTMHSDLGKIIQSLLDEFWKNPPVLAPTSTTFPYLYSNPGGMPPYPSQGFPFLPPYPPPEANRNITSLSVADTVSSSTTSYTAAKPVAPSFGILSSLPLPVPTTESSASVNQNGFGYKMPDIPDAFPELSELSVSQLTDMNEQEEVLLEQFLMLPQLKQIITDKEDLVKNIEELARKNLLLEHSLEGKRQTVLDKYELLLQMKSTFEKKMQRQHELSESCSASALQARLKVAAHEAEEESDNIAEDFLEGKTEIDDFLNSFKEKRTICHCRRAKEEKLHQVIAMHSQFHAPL
UniProt Q8CFY5: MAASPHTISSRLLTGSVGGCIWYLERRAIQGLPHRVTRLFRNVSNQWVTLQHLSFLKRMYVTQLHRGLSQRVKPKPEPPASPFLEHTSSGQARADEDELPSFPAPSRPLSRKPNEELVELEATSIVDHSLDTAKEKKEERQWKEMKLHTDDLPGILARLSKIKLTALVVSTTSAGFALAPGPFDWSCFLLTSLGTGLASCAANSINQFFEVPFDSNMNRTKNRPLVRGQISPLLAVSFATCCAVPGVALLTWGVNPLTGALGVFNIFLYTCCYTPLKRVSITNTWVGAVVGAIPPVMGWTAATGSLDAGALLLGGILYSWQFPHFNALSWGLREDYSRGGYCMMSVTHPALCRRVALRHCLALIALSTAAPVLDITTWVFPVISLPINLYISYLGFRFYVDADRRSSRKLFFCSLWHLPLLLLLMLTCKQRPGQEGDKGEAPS
UniProt Q8CHT3, whole entry: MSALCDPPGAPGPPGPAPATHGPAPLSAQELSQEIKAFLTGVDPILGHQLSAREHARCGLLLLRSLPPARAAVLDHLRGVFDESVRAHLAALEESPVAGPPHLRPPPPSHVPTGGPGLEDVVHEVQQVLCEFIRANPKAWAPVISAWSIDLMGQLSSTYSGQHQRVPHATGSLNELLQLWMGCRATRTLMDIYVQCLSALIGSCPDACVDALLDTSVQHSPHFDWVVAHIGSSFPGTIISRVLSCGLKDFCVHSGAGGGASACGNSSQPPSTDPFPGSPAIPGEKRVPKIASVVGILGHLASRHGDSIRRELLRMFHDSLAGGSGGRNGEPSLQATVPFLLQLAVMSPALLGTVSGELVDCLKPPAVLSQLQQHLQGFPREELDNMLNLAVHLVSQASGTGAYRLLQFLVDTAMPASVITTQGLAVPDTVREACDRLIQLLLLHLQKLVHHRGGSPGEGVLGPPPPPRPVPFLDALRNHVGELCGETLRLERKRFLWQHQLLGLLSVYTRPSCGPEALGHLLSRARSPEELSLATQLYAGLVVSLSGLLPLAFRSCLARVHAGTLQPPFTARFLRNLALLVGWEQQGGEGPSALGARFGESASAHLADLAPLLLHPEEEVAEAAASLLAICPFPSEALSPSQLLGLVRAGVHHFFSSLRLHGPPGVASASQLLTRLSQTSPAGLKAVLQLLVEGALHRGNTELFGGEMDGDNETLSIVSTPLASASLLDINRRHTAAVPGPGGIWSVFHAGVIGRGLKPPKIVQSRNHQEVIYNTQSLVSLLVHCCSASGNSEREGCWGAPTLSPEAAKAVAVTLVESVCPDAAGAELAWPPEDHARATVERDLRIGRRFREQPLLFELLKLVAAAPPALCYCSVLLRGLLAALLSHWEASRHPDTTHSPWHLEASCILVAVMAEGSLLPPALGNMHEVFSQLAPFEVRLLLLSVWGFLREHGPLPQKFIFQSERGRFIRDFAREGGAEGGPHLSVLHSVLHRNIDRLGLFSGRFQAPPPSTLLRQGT
UniProt Q8CI32: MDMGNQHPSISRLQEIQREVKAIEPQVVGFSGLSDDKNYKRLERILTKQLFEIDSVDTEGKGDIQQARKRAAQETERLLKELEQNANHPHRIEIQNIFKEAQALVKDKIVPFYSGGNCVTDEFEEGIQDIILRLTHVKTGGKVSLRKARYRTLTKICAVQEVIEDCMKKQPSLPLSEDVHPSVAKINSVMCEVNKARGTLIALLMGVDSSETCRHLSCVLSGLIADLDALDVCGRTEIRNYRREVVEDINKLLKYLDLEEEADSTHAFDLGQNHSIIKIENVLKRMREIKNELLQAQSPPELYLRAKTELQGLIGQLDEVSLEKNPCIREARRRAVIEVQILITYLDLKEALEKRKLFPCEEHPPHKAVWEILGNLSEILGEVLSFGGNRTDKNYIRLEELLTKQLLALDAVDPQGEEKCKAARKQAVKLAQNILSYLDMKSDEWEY
UniProt Q8CFE5: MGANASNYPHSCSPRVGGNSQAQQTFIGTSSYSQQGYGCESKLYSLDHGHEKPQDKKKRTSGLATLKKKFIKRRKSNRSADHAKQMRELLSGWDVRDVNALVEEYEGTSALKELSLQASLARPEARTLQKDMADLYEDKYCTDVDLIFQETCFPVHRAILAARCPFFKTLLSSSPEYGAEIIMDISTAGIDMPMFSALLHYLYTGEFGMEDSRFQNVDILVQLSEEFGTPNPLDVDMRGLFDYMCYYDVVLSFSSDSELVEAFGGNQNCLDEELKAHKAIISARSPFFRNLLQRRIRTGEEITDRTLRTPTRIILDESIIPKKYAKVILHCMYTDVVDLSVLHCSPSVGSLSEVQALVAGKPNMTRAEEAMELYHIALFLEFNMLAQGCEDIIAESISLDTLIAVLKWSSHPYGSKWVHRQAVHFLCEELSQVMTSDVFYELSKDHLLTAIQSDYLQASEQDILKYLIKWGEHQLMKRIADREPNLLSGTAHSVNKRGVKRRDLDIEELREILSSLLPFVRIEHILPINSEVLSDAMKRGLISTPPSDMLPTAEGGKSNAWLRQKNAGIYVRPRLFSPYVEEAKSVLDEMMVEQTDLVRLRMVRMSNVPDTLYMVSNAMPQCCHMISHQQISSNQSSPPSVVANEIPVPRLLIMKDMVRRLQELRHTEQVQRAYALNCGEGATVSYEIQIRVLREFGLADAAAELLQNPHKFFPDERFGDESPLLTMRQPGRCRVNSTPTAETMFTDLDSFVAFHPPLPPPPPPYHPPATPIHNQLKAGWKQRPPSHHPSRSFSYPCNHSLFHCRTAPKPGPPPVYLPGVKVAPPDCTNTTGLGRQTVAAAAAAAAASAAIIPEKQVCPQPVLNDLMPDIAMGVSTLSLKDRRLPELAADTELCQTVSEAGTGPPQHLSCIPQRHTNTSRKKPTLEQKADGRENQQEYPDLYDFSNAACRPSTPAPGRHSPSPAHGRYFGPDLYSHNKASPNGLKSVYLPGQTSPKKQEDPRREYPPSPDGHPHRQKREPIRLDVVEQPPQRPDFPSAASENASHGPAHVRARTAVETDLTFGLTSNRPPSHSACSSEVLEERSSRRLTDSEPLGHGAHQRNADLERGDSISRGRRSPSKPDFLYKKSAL
UniProt Q8CFA2: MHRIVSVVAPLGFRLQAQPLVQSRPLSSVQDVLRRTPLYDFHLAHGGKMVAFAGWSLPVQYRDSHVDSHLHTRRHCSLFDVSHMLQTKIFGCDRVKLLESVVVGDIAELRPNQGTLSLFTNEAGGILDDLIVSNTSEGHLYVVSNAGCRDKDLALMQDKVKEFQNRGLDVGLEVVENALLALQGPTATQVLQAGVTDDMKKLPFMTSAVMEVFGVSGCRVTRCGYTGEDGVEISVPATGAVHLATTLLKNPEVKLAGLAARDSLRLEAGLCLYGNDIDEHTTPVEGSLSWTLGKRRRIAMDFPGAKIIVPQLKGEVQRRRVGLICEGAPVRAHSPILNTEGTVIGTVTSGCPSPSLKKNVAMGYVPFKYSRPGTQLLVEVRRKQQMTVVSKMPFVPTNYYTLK
UniProt Q8CBY1: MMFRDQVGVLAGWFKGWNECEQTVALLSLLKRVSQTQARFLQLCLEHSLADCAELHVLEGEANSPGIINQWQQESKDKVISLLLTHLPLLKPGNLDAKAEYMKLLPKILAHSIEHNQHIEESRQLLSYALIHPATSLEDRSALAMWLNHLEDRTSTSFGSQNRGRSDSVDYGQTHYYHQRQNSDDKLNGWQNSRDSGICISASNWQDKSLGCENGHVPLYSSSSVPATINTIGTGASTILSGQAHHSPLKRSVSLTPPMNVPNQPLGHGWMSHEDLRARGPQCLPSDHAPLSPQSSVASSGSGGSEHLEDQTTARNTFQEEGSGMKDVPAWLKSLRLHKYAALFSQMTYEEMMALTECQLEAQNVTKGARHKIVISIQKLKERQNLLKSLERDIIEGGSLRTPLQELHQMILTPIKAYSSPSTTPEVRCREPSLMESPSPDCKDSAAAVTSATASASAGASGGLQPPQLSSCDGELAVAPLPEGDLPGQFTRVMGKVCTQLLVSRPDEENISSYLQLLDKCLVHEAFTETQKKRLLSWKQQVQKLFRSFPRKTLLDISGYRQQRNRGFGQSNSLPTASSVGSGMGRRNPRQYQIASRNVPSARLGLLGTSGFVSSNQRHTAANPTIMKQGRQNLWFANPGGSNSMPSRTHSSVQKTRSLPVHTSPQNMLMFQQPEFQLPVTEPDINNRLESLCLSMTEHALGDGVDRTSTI
UniProt Q8CGF1: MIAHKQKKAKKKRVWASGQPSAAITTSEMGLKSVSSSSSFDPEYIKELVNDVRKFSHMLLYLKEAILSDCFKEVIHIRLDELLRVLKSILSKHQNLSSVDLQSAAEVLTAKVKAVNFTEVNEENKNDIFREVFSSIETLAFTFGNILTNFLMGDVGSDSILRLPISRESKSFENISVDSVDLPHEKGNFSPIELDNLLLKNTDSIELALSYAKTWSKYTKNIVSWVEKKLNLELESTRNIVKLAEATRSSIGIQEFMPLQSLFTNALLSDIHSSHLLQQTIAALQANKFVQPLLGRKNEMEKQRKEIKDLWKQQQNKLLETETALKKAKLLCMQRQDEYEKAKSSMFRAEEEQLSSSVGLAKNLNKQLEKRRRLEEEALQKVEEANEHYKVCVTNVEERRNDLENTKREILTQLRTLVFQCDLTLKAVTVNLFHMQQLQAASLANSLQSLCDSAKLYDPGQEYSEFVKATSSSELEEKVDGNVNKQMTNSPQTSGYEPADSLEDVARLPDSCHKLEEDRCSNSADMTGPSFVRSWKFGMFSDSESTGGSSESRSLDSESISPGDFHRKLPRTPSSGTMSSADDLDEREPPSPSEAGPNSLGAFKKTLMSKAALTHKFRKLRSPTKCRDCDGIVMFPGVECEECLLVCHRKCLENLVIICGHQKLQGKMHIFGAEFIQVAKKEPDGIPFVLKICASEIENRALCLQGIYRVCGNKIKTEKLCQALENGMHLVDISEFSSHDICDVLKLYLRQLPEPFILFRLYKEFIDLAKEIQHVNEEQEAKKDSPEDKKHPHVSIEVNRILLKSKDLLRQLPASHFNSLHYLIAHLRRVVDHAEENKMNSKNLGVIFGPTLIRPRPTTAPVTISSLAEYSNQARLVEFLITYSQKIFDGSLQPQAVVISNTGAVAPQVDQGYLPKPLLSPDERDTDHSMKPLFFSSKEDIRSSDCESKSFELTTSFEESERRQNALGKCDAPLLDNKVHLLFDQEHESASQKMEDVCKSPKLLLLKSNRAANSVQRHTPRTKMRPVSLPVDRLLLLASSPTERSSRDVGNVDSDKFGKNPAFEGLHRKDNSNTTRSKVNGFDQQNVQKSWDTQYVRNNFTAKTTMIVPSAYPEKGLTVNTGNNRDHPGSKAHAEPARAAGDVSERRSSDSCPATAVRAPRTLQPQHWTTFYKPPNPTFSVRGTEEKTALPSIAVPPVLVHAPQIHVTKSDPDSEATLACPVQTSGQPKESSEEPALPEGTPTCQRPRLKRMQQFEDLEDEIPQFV

Compound in the experiment: CN[C@@H]1C[C@H]2O[C@@](C)([C@@H]1OC)n1c3ccccc3c3c4c(c5c6ccccc6n2c5c31)C(=O)NC4 [staurosporine]
In words: log2 fold change of tryptic peptide abundance, ligand vs vehicle (limited proteolysis) (log2 ratio); higher = more trypsin-susceptible (destabilized). The conditions noted are these: ligand concentration: 20 uM; sample: mouse liver crude lysate; replicate design: treated separately.
“UniProt Q8CFV9 (peptide sequence: SLPFFCR, peptide start residue: 3)”: the log2 fold change was -0.0937.

“UniProt Q8CD26 (peptide sequence: NILLTDHFQYSR, peptide start residue: 384)”: the log2 fold change was -0.157.

With “UniProt Q8CEC5 (peptide sequence: VVICGLLSVGK, peptide start residue: 7)”, the log2 fold change amounted to 0.457.

As for “UniProt Q8CHS8 (peptide sequence: QIITDKEDLVK, peptide start residue: 264)”, the log2 fold change was -0.343.

As for “UniProt Q8JZQ9 (peptide sequence: GYIFLEYASPAHAVDAVK, peptide start residue: 220)”, the log2 fold change was -0.633.

As to “UniProt Q8CFY5 (peptide sequence: LHTDDLPGILAR, peptide start residue: 147)”, the log2 fold change amounted to 0.493.

Consider “UniProt Q8CHT3 (peptide sequence: EHARCGLLLLR, peptide start residue: 54)”, for which the log2 fold change is -0.72.

Consider “UniProt Q8CI32 (peptide sequence: EAQALVKDK, peptide start residue: 100)”, for which the log2 fold change is -0.501.

In the case of “UniProt Q8CFE5 (peptide sequence: SVYLPGQTSPK, peptide start residue: 986)”, the log2 fold change was -0.186.

For “UniProt Q8CFA2 (peptide sequence: DKDLALMQDKVK, peptide start residue: 150)”, the log2 fold change is -0.419.

For the target “UniProt Q8CBY1 (peptide sequence: KTLLDISGYR, peptide start residue: 552)”, the log2 fold change is -0.337.

Regarding “UniProt Q8CDI7 (peptide sequence: HLTNKMASLEHHK, peptide start residue: 537)”, the log2 fold change was -0.34.

In the case of “UniProt Q8CIM3 (peptide sequence: GSCHIGGNVATNAGGLR, peptide start residue: 210)”, the log2 fold change is -0.501.

For “UniProt Q8CGF1 (peptide sequence: NIVSWVEK, peptide start residue: 221)”, the log2 fold change was -0.304.

The record behind these values is the supplement of paper PMC12819154, “High-throughput peptide-centric local stability assay extends protein–ligand identification to membrane proteins, tissues and bacteria” (Nature Structural & Molecular Biology, 2025).
